Experimental data reported in patent US4316891A (The Salk Institute for Biological Studies, priority 1980, dated 1982).
Some peptides are written in HELM: one residue between dots, names in brackets for other building blocks, links after the first $.

Assay: Boc solid-phase peptide synthesis; chloromethylated resin or hydroxymethyl resin
Conditions: whole synthesis

Substance: PEPTIDE1{S.A.N.S.N.P.A.M.A.P.R.E.R.K.A.G.C.K.N.F.F.W.K.T.F.T.S.C}$PEPTIDE1,PEPTIDE1,17:R3-28:R3$$$V2.0
- final purity (method not given): greater than 97%
